The list shows a part of the results. Many values rest on one well or one pass, so single values are uncertain.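 Cells were imaged in 1,536-well plates, and nuclei stained with an antibody against cleaved PARP were counted against all DNA-stained nuclei to give the apoptosis fraction. Screening doses were chosen to leave most cells alive, and resting and induced cleaved-PARP levels differ strongly between cell lines.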
Key:
Assay in all cases: cleaved PARP positive nuclei fraction relative to DMSO control; melanoma cells; higher = more apoptosis
Details in all cases: library dose: low library concentration; 72 h
501Mel = system: 501Mel
A101D = system: A101D
A2058 = system: A2058
A375 = system: A375
C32 = system: C32
CBRC008 = system: CBRC008 (line from a melanoma biopsy)
CBRC014 = system: CBRC014 (line from a melanoma biopsy)
CBRC016 = system: CBRC016 (line from a melanoma biopsy)
CBRC017 = system: CBRC017 (line from a melanoma biopsy)

| Compound | cleaved PARP positive nuclei fraction (501Mel) [%] | cleaved PARP positive nuclei fraction (A101D) [%] | cleaved PARP positive nuclei fraction (A2058) [%] | cleaved PARP positive nuclei fraction (A375) [%] | cleaved PARP positive nuclei fraction (C32) [%] | cleaved PARP positive nuclei fraction (CBRC008) [%] | cleaved PARP positive nuclei fraction (CBRC014) [%] | cleaved PARP positive nuclei fraction (CBRC016) [%] | cleaved PARP positive nuclei fraction (CBRC017) [%] |
| --- | --- | --- | --- | --- | --- | --- | --- | --- | --- |
| C[C@@H](N)c1ccc(C(=O)Nc2ccnc3[nH]ccc23)cc1 + CC(C)C[C@H](NC(=O)[C@H](Cc1ccccc1)NC(=O)c1cnccn1)B(O)O [Bortezomib] (first compound 0.4 µM, partner dose 0.001 µM) | 457 | 306 | 131 | 54 | 76.7 | 553 | 295 | 209 | 278 |
| CS(=O)(=O)c1ccc(C(=O)Nc2ccc(Cl)c(-c3ccccn3)c2)c(Cl)c1 [vismodegib] + CC(=O)c1c(C)c2cnc(Nc3ccc(N4CCNCC4)cn3)nc2n(C2CCCC2)c1=O [palbociclib] (first compound 1 µM, partner dose 0.04 µM) | 157 | 318 | 106 | 284 | 85.8 | 92.2 | 121 | 36.9 | 133 |
| CS(=O)(=O)c1ccc(C(=O)Nc2ccc(Cl)c(-c3ccccn3)c2)c(Cl)c1 [vismodegib] + OCc1c[nH]c2ccccc12 [Indole-3-carbinol] (first compound 1 µM, partner dose 0.8 µM) | 251 | 103 | 114 | 55.9 | 69.4 | 166 | 73.9 | 109 | 82.3 |
| NC1(c2ccc(-c3nc4ccn5c(=O)[nH]nc5c4cc3-c3ccccc3)cc2)CCC1 + Nc1cccc2c1CN(C1CCC(=O)NC1=O)C2=O [lenalidomide] (first compound 0.4 µM, partner dose 1 µM) | 68.4 | 188 | 172 | 95.4 | 83.8 | 114 | 79.3 | 42.4 | 95.1 |
| Cn1cnc2c(F)c(Nc3ccc(Br)cc3Cl)c(C(=O)NOCCO)cc21 [selumetinib] + O=C(O)[C@@H]1[O][Sb](=[O])([O][Sb]2(=[O])[O][C@H]([C@H](O)CO)[C@H](O)[C@H](C(=O)O)[O]2)[O][C@H]([C@H](O)CO)[C@@H]1O [stibogluconate] (first compound 0.015 µM, partner dose 2 µM) | 633 | 122 | 106 | 403 | 93.5 | 104 | 89.3 | 57.1 | 128 |
| CCN(CC)CCNC(=O)c1c(C)[nH]c(/C=C2\C(=O)Nc3ccc(F)cc32)c1C [sunitinib] + C[C@@H](Oc1cc(-c2cnn(C3CCNCC3)c2)cnc1N)c1c(Cl)ccc(F)c1Cl [Crizotinib] (first compound 0.4 µM, partner dose 0.2 µM) | 190 | 116 | 101 | 122 | 68.7 | 36.8 | 102 | 168 | 66.9 |
| NC1(c2ccc(-c3nc4ccn5c(=O)[nH]nc5c4cc3-c3ccccc3)cc2)CCC1 + Nc1ccn([C@@H]2O[C@H](CO)[C@@H](O)C2(F)F)c(=O)n1 [gemcitabine] (first compound 0.4 µM, partner dose 0.0004 µM) | 138 | 49.4 | 148 | 140 | 325 | 251 | 140 | 1120 | 109 |
| C[C@@H](N)c1ccc(C(=O)Nc2ccnc3[nH]ccc23)cc1 + NC(=O)c1ccc(N(C(N)=O)c2c(F)cccc2F)nc1-c1ccc(F)cc1F [VX702] (first compound 0.4 µM, partner dose 0.4 µM) | 98.5 | 86.6 | 77.4 | 149 | 77.2 | 57.2 | 103 | 168 | 129 |
| Cn1sc(=O)n(Cc2ccccc2)c1=O + NC(=O)c1ccc(N(C(N)=O)c2c(F)cccc2F)nc1-c1ccc(F)cc1F [VX702] (first compound 0.4 µM, partner dose 0.4 µM) | 102 | 110 | 107 | 166 | 75.4 | 79.8 | 107 | 196 | 81.9 |
| CC1(C)CCC(c2ccc(Cl)cc2)=C(CN2CCN(c3ccc(C(=O)NS(=O)(=O)c4ccc(N[C@H](CCN5CCOCC5)CSc5ccccc5)c(S(=O)(=O)C(F)(F)F)c4)cc3)CC2)C1 + C=C(c1ccc(C(=O)O)cc1)c1cc2c(cc1C)C(C)(C)CCC2(C)C [Bexarotene] (first compound 0.4 µM, partner dose 2 µM) | 170 | 292 | 50.4 | 555 | 132 | 999 | 1140 | 754 | 450 |
| C[C@@H](N)c1ccc(C(=O)Nc2ccnc3[nH]ccc23)cc1 + Clc1ccc(Nc2nnc(Cc3ccncc3)c3ccccc23)cc1 [vatalanib] (first compound 0.4 µM, partner dose 2 µM) | 59.9 | 198 | 162 | 185 | 101 | 87.4 | 113 | 99.7 | 90.4 |
| Cn1sc(=O)n(Cc2ccccc2)c1=O + C[C@]1(O)C[C@@H](c2nc(-c3ccc4ccc(-c5ccccc5)nc4c3)c3c(N)nccn32)C1 [OSI906] (first compound 0.4 µM, partner dose 0.4 µM) | 332 | 113 | 109 | 286 | 76.5 | 75.2 | 114 | 83.1 | 128 |
| CC(=O)O[C@@]12CO[C@@H]1C[C@H](O)[C@@]1(C)C(=O)[C@H](O)C3=C(C)[C@@H](OC(=O)[C@H](O)[C@@H](NC(=O)OC(C)(C)C)c4ccccc4)C[C@@](O)([C@@H](OC(=O)c4ccccc4)[C@H]21)C3(C)C [Docetaxel] + COc1ccc(Cl)c(Nc2nc3ccccc3nc2NS(=O)(=O)c2cccc(NC(=O)C(C)(C)N)c2)c1 [XL147] (first compound 0.0001 µM, partner dose 0.8 µM) | 216 | 109 | 2700 | 2010 | 87.5 | 644 | 160 | 308 | 150 |
| Cn1sc(=O)n(Cc2ccccc2)c1=O + CO[C@H]1C[C@@H]2CC[C@@H](C)[C@@](O)(O2)C(=O)C(=O)N2CCCC[C@H]2C(=O)O[C@H]([C@H](C)C[C@@H]2CC[C@@H](OCCO)[C@H](OC)C2)CC(=O)[C@H](C)/C=C(\C)[C@@H](O)[C@@H](OC)C(=O)[C@H](C)C[C@H](C)/C=C/C=C/C=C/1C [everolimus] (first compound 0.4 µM, partner dose 0.02 µM) | 175 | 55.2 | 92.9 | 364 | 167 | 38.9 | 105 | 4590 | 142 |
| CCCCCCCCc1ccc(CCC(N)(CO)CO)cc1 [fingolimod] + Cc1cc(Nc2cc(N3CCN(C)CC3)nc(/C=C/c3ccccc3)n2)n[nH]1 [ENMD2076] (first compound 2 µM, partner dose 0.04 µM) | 139 | 92.1 | 111 | 210 | 64.8 | 68.4 | 114 | 91.7 | 154 |
| C[C@]1(O)C[C@@H](c2nc(-c3ccc4ccc(-c5ccccc5)nc4c3)c3c(N)nccn32)C1 + Cc1cc(Nc2cc(N3CCN(C)CC3)nc(/C=C/c3ccccc3)n2)n[nH]1 [ENMD2076] (first compound 0.4 µM, partner dose 0.04 µM) | 94.6 | 165 | 117 | 469 | 81.2 | 75.4 | 108 | 33.6 | 99.2 |
| C[C@@H](N)c1ccc(C(=O)Nc2ccnc3[nH]ccc23)cc1 + CN1CCN(c2ccc3nc(-c4c(N)c5c(F)cccc5[nH]c4=O)[nH]c3c2)CC1 [Dovitinib] (first compound 0.4 µM, partner dose 0.1 µM) | 119 | 136 | 111 | 192 | 90.6 | 103 | 90.4 | 130 | 136 |
| CC1(C)CCC(c2ccc(Cl)cc2)=C(CN2CCN(c3ccc(C(=O)NS(=O)(=O)c4ccc(N[C@H](CCN5CCOCC5)CSc5ccccc5)c(S(=O)(=O)C(F)(F)F)c4)cc3)CC2)C1 + C[C@@H](Oc1cc(-c2cnn(C3CCNCC3)c2)cnc1N)c1c(Cl)ccc(F)c1Cl [Crizotinib] (first compound 0.4 µM, partner dose 0.2 µM) | 61.6 | 178 | 68.4 | 339 | 159 | 414 | 523 | 777 | 348 |
| CC1(C)CCC(c2ccc(Cl)cc2)=C(CN2CCN(c3ccc(C(=O)NS(=O)(=O)c4ccc(N[C@H](CCN5CCOCC5)CSc5ccccc5)c(S(=O)(=O)C(F)(F)F)c4)cc3)CC2)C1 + Cn1c(Nc2ccc(C(F)(F)F)cc2)nc2cc(Oc3ccnc(-c4ncc(C(F)(F)F)[nH]4)c3)ccc21 [CHIR265] (first compound 0.4 µM, partner dose 0.08 µM) | 347 | 347 | 368 | 922 | 344 | 248 | 1590 | 842 | 560 |
| CC(=O)O[C@@]12CO[C@@H]1C[C@H](O)[C@@]1(C)C(=O)[C@H](O)C3=C(C)[C@@H](OC(=O)[C@H](O)[C@@H](NC(=O)OC(C)(C)C)c4ccccc4)C[C@@](O)([C@@H](OC(=O)c4ccccc4)[C@H]21)C3(C)C [Docetaxel] + CC(=O)c1c(C)c2cnc(Nc3ccc(N4CCNCC4)cn3)nc2n(C2CCCC2)c1=O [palbociclib] (first compound 0.0001 µM, partner dose 0.04 µM) | 187 | 126 | 2130 | 1060 | 201 | 257 | 161 | 119 | 416 |
| COc1ccc(C2=N[C@@H](c3ccc(Cl)cc3)[C@@H](c3ccc(Cl)cc3)N2C(=O)N2CCNC(=O)C2)c(OC(C)C)c1 [Nutlin-3] + CS(=O)(=O)c1ccc(C(=O)Nc2ccc(Cl)c(-c3ccccn3)c2)c(Cl)c1 [vismodegib] (first compound 0.1 µM, partner dose 1 µM) | 155 | 235 | 105 | 299 | 82 | 115 | 89.2 | 77 | 131 |

Pulled one by one from the list above, 2 records:

| Compound | cleaved PARP positive nuclei fraction (501Mel) [%] | cleaved PARP positive nuclei fraction (A101D) [%] | cleaved PARP positive nuclei fraction (A2058) [%] | cleaved PARP positive nuclei fraction (A375) [%] | cleaved PARP positive nuclei fraction (C32) [%] | cleaved PARP positive nuclei fraction (CBRC008) [%] | cleaved PARP positive nuclei fraction (CBRC014) [%] | cleaved PARP positive nuclei fraction (CBRC016) [%] | cleaved PARP positive nuclei fraction (CBRC017) [%] |
| --- | --- | --- | --- | --- | --- | --- | --- | --- | --- |
| C[C@@H](N)c1ccc(C(=O)Nc2ccnc3[nH]ccc23)cc1 + NC(=O)c1ccc(N(C(N)=O)c2c(F)cccc2F)nc1-c1ccc(F)cc1F [VX702] (first compound 0.4 µM, partner dose 0.4 µM) | 98.5 | 86.6 | 77.4 | 149 | 77.2 | 57.2 | 103 | 168 | 129 |
| C[C@@H](N)c1ccc(C(=O)Nc2ccnc3[nH]ccc23)cc1 + Clc1ccc(Nc2nnc(Cc3ccncc3)c3ccccc23)cc1 [vatalanib] (first compound 0.4 µM, partner dose 2 µM) | 59.9 | 198 | 162 | 185 | 101 | 87.4 | 113 | 99.7 | 90.4 |

Source: the supplement of paper PMC4604168 (melanoma cell lines)
